Experimental data as given in paper PMC9779817, “Identification of New Purpuroine Analogues from the Arctic Echinodermata Pteraster militaris That Inhibit FLT3-ITD^+ AML Cell Lines” (International Journal of Molecular Sciences, 2022).
Converted amounts (≈) assume the structure as drawn.

System: Candida albicans (ATCC 10231)
Test: Antifungal growth inhibition assay
Type: cell-based
Conditions: ATCC10231, positive control

MIC: 8.7 µM (≈ 8.04 µg/mL)
SMILES: C[C@@H]1[C@H](O)[C@@H](C)/C=C/C=C/C=C/C=C/C=C/C=C/C=C/[C@H](O[C@@H]2O[C@H](C)[C@@H](O)[C@H](N)[C@@H]2O)C[C@@H]2O[C@](O)(C[C@@H](O)C[C@@H](O)[C@H](O)CC[C@@H](O)C[C@@H](O)CC(=O)O[C@H]1C)C[C@H](O)[C@H]2C(=O)O [amphotericin-B]
